Measurements taken from the supplement of paper PMC8728848.
This is one part of the list.

How the values were obtained:
Assay in all cases: glycan array binding signal (z-score within array); higher = stronger binding
Conditions in all cases: glycan notation: IUPAC condensed, linker removed
[1] = biological target: Neu5Ac(a2-6)Gal(b1-4)GlcNAc(b1-3)Gal(b1-4)GlcNAc(b1-3)Gal(b1-4)GlcNAc(b1-2)Man(a1-3)[Neu5Ac(a2-6)Gal(b1-4)GlcNAc(b1-3)Gal(b1-4)GlcNAc(b1-3)Gal(b1-4)GlcNAc(b1-2)Man(a1-6)]GalNAc
Outline: (§1)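 Negative Z-scores can be read as non-binding. The Z-score is calculated within each array and then averaged across arrays of one protein sequence at different concentrations or buffers and across linkers. Arrays, 3228 in all, were curated from the Consortium for Functional Glycomics database and kept only where the protein sequence was available.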

[2] = biological target: Neu5Ac(a2-6)Gal(b1-4)GlcNAc(b1-3)Gal(b1-4)GlcNAc(b1-3)GalNAc
Outline: as §1

[3] = biological target: Neu5Ac(a2-6)Gal(b1-4)GlcNAc(b1-3)Gal(b1-4)GlcNAc(b1-3)[Neu5Ac(a2-6)Gal(b1-4)GlcNAc(b1-3)Gal(b1-4)GlcNAc(b1-6)]GalNAc
Outline: as §1

[4] = biological target: Neu5Ac(a2-6)Gal(b1-4)GlcNAc(b1-3)Gal(b1-4)GlcNAc(b1-6)[Gal(b1-3)]GalNAc
Outline: as §1

[5] = biological target: Neu5Ac(a2-6)Gal(b1-4)GlcNAc(b1-3)Gal(b1-4)[Fuc(a1-3)]GlcNAc(b1-3)Gal(b1-4)[Fuc(a1-3)]GlcNAc
Outline: as §1

[6] = biological target: Neu5Ac(a2-6)Gal(b1-4)GlcNAc(b1-3)GalNAc
Outline: as §1

[7] = biological target: Neu5Ac(a2-6)Gal(b1-4)GlcNAc(b1-3)[Neu5Ac(a2-6)Gal(b1-4)GlcNAc(b1-6)]GalNAc
Outline: as §1

[8] = biological target: Neu5Ac(a2-6)Gal(b1-4)GlcNAc(b1-6)GalNAc
Outline: as §1

[9] = biological target: Neu5Ac(a2-6)Gal(b1-4)GlcNAc(b1-6)[Gal(b1-3)GlcNAc(b1-3)]Gal(b1-4)Glc
Outline: as §1

[10] = biological target: Neu5Ac(a2-6)Gal(b1-4)GlcNAc(b1-6)[Gal(b1-3)]GalNAc
Outline: as §1

[11] = biological target: Neu5Ac(a2-6)Gal(b1-4)GlcNAc6S
Outline: as §1

Neu5Ac(a2-6)GalNAc = biological target: Neu5Ac(a2-6)GalNAc
Outline: as §1

[12] = biological target: Neu5Ac(a2-6)GalNAc(b1-4)GlcNAc
Outline: as §1

[13] = biological target: Neu5Ac(a2-6)GalNAc(b1-4)GlcNAc6S
Outline: as §1

[14] = biological target: Neu5Ac(a2-6)GlcNAc(b1-4)GlcNAc
Outline: as §1

[15] = biological target: Neu5Ac(a2-6)GlcNAc(b1-4)GlcNAc(b1-4)GlcNAc
Outline: as §1

Neu5Ac(a2-8)Neu5Ac = biological target: Neu5Ac(a2-8)Neu5Ac
Outline: as §1

[16] = biological target: Neu5Ac(a2-8)Neu5Ac(a2-3)Gal(b1-3)GalNAc(b1-4)[Neu5Ac(a2-3)]Gal(b1-4)Glc
Outline: as §1

[17] = biological target: Neu5Ac(a2-8)Neu5Ac(a2-3)Gal(b1-3)GalNAc(b1-4)[Neu5Ac(a2-8)Neu5Ac(a2-3)]Gal(b1-4)Glc
Outline: as §1

[18] = biological target: Neu5Ac(a2-8)Neu5Ac(a2-3)Gal(b1-4)Glc
Outline: as §1

[19] = biological target: Neu5Ac(a2-8)Neu5Ac(a2-3)Gal(b1-4)GlcNAc
Outline: as §1

[20] = biological target: Neu5Ac(a2-8)Neu5Ac(a2-3)[Gal(b1-3)GalNAc(b1-4)]Gal(b1-4)Glc
Outline: as §1

[21] = biological target: Neu5Ac(a2-8)Neu5Ac(a2-3)[GalNAc(b1-4)]Gal(b1-4)Glc
Outline: as §1

[22] = biological target: Neu5Ac(a2-8)Neu5Ac(a2-8)Neu5Ac
Outline: as §1

[23] = biological target: Neu5Ac(a2-8)Neu5Ac(a2-8)Neu5Ac(a2-3)Gal(b1-4)Glc
Outline: as §1

[24] = biological target: Neu5Ac(a2-8)Neu5Ac(a2-8)Neu5Ac(a2-3)[Gal(b1-3)GalNAc(b1-4)]Gal(b1-4)Glc
Outline: as §1

[25] = biological target: Neu5Ac(a2-8)Neu5Ac(a2-8)Neu5Ac(a2-3)[GalNAc(b1-4)]Gal(b1-4)Glc
Outline: as §1

[26] = biological target: Neu5Ac(a2-8)Neu5Ac(a2-8)Neu5Ac(a2-8)Neu5Ac(a2-3)[GalNAc(b1-4)]Gal(b1-4)Glc
Outline: as §1

[27] = biological target: Neu5Ac(a2-8)Neu5Gc(a2-3)Gal(b1-4)GlcNAc
Outline: as §1

[28] = biological target: Neu5Ac(b2-6)Gal(b1-4)GlcNAc
Outline: as §1

Neu5Ac(b2-6)GalNAc = biological target: Neu5Ac(b2-6)GalNAc
Outline: as §1

[29] = biological target: Neu5Ac9Ac(a2-3)Gal(b1-3)GlcNAc
Outline: as §1

[30] = biological target: Neu5Ac9Ac(a2-3)Gal(b1-4)GlcNAc
Outline: as §1

[31] = biological target: Neu5Ac9Ac(a2-6)Gal(b1-4)GlcNAc
Outline: as §1

[32] = biological target: Neu5Gc(a2-3)Gal(b1-3)GlcNAc
Outline: as §1

[33] = biological target: Neu5Gc(a2-3)Gal(b1-3)[Fuc(a1-4)]GlcNAc
Outline: as §1

Neu5Gc(a2-3)Gal(b1-4)Glc = biological target: Neu5Gc(a2-3)Gal(b1-4)Glc
Outline: as §1

[34] = biological target: Neu5Gc(a2-3)Gal(b1-4)GlcNAc
Outline: as §1

[35] = biological target: Neu5Gc(a2-3)Gal(b1-4)GlcNAc(b1-3)Gal(b1-4)GlcNAc(b1-2)Man(a1-3)[Neu5Gc(a2-3)Gal(b1-4)GlcNAc(b1-3)Gal(b1-4)GlcNAc(b1-2)Man(a1-6)]Man(b1-4)GlcNAc(b1-4)GlcNAc
Outline: as §1

[36] = biological target: Neu5Gc(a2-3)Gal(b1-4)[Fuc(a1-3)]GlcNAc
Outline: as §1

[37] = biological target: Neu5Gc(a2-6)Gal(b1-4)GlcNAc
Outline: as §1

Neu5Gc(a2-6)GalNAc = biological target: Neu5Gc(a2-6)GalNAc
Outline: as §1

[38] = biological target: Neu5Gc(a2-8)Neu5Ac(a2-3)Gal(b1-4)GlcNAc
Outline: as §1

[39] = biological target: Neu5Gc(a2-8)Neu5Gc(a2-3)Gal(b1-4)GlcNAc
Outline: as §1

[40] = biological target: Neu5Gc(a2-8)Neu5Gc(a2-3)Gal(b1-4)GlcNAc(b1-3)Gal(b1-4)GlcNAc
Outline: as §1

B1: PX9937I-bfa-538-26-538 (Bacteroides fragilis) (protein)
chain: DKLDLSPIDYYGSGSYWKTEAQATAYIDGIHKHLRDAAWQHTITFGELRGGRFITGASSDGMGVSNGDIILQNFDETHTGVSKFGDLFGRITNLNLFIARVTDATYLSDEMKNFYLGEVYGLRAFYYFDLYRIYGGVPLRLTADVVEGVIDPNKLYMARSTPKEVMTQIKSDLNKSMEYFGNMNDFDPYKRGKKVYWSKAATECLMGEVYLWTSKVTTGDDVANPADLTIAKTHLESVLNNYNLKMLDDFSQVFNAKNKANDEIIFAIRFLEGEATNSNGTFTYNVGTGSTKNRYQANGEVFGDALDIQNTGNQTYEYNKAVYQNFDDADTRKEATFIASYNKDGKTGELSLYGTHVRKNIGYVNAQGARVYCGDYIFYRLPWVYLTLAEIANMEGDNAAVAKYINLVRKRAYGNAWDETLYAYPETADFTTNELAILHEKDKEFIQEGQRWWDLRRMTLTKGGTPLVFCKEGSLLGDAPILNKSTEAHKLLWPIEKTMLNKDPALEQTPGYK
**Q.** With B1 as the binder, how does the “glycan array binding signal (z-score)” value [1] read?
**A.** Its value is 1.61.

**Q.** And the “glycan array binding signal (z-score)” value [2]?
**A.** The value was -0.147.

**Q.** And the “glycan array binding signal (z-score)” value [3]?
**A.** The value was -0.643.

**Q.** And the “glycan array binding signal (z-score)” value [4]?
**A.** The value was -0.728.

**Q.** What about the “glycan array binding signal (z-score)” value [5] of the same binder?
**A.** Its value is 0.356.

**Q.** What about the “glycan array binding signal (z-score)” value [6] of the same binder?
**A.** Its value is -1.06.

**Q.** And the “glycan array binding signal (z-score)” value [7]?
**A.** Its value is -0.593.

**Q.** And the “glycan array binding signal (z-score)” value [8]?
**A.** The value was -0.056.

**Q.** And the “glycan array binding signal (z-score)” value [9]?
**A.** The value was -0.63.

**Q.** And the “glycan array binding signal (z-score)” value [10]?
**A.** The value was 0.235.

**Q.** And the “glycan array binding signal (z-score)” value [11]?
**A.** The value was -0.184.

**Q.** And the “glycan array binding signal (z-score)” value (Neu5Ac(a2-6)GalNAc)?
**A.** The value was -0.586.

**Q.** What about the “glycan array binding signal (z-score)” value [12] of the same binder?
**A.** The value was -0.277.

**Q.** What about the “glycan array binding signal (z-score)” value [13] of the same binder?
**A.** Its value is -0.9.

**Q.** What about the “glycan array binding signal (z-score)” value [14] of the same binder?
**A.** Its value is -0.188.

**Q.** What about the “glycan array binding signal (z-score)” value [15] of the same binder?
**A.** The value was 0.288.

**Q.** What about the “glycan array binding signal (z-score)” value (Neu5Ac(a2-8)Neu5Ac) of the same binder?
**A.** Its value is -0.358.

**Q.** And the “glycan array binding signal (z-score)” value [16]?
**A.** Its value is 0.12.

**Q.** What about the “glycan array binding signal (z-score)” value [17] of the same binder?
**A.** The value was 0.349.

**Q.** And the “glycan array binding signal (z-score)” value [18]?
**A.** The value was -0.76.

**Q.** And the “glycan array binding signal (z-score)” value [19]?
**A.** Its value is -0.938.

**Q.** What about the “glycan array binding signal (z-score)” value [20] of the same binder?
**A.** Its value is 0.949.

**Q.** And the “glycan array binding signal (z-score)” value [21]?
**A.** Its value is -0.034.

**Q.** And the “glycan array binding signal (z-score)” value [22]?
**A.** Its value is -0.092.

**Q.** What about the “glycan array binding signal (z-score)” value [23] of the same binder?
**A.** Its value is 0.024.

**Q.** What about the “glycan array binding signal (z-score)” value [24] of the same binder?
**A.** The value was -0.352.

**Q.** And the “glycan array binding signal (z-score)” value [25]?
**A.** Its value is 0.094.

**Q.** And the “glycan array binding signal (z-score)” value [26]?
**A.** The value was -0.475.

**Q.** And the “glycan array binding signal (z-score)” value [27]?
**A.** The value was 0.35.

**Q.** What about the “glycan array binding signal (z-score)” value [28] of the same binder?
**A.** Its value is -0.137.

**Q.** And the “glycan array binding signal (z-score)” value (Neu5Ac(b2-6)GalNAc)?
**A.** Its value is -0.386.

**Q.** What about the “glycan array binding signal (z-score)” value [29] of the same binder?
**A.** The value was -0.793.

**Q.** What about the “glycan array binding signal (z-score)” value [30] of the same binder?
**A.** Its value is -0.717.

**Q.** And the “glycan array binding signal (z-score)” value [31]?
**A.** The value was -0.293.

**Q.** What about the “glycan array binding signal (z-score)” value [32] of the same binder?
**A.** The value was 0.425.

**Q.** And the “glycan array binding signal (z-score)” value [33]?
**A.** The value was -0.037.

**Q.** And the “glycan array binding signal (z-score)” value (Neu5Gc(a2-3)Gal(b1-4)Glc)?
**A.** Its value is -0.086.

**Q.** And the “glycan array binding signal (z-score)” value [34]?
**A.** Its value is -0.536.

**Q.** And the “glycan array binding signal (z-score)” value [35]?
**A.** The value was -0.051.

**Q.** And the “glycan array binding signal (z-score)” value [36]?
**A.** The value was 0.378.

**Q.** And the “glycan array binding signal (z-score)” value [37]?
**A.** The value was -0.339.

**Q.** What about the “glycan array binding signal (z-score)” value (Neu5Gc(a2-6)GalNAc) of the same binder?
**A.** Its value is -0.122.

**Q.** What about the “glycan array binding signal (z-score)” value [38] of the same binder?
**A.** Its value is -0.078.

**Q.** And the “glycan array binding signal (z-score)” value [39]?
**A.** The value was -0.476.

**Q.** What about the “glycan array binding signal (z-score)” value [40] of the same binder?
**A.** The value was -0.944.
